# From PubChem BioAssay AID248 (DTP/NCI, 2004)
# The list does not hold the whole screen: it covers a few groups of compounds. Other doses and runs of a compound may be missing. T/C is the treated group as % of the vehicle group. Where survival is the endpoint, the PubChem record calls one and a half times the control and up active, and a quarter to a half above the control has no call in these data; cut-offs in other NCI protocols can differ. Schedules are NCI's codes, taken here to give the interval after Q, in days (D) or hours (H), and the number of doses after X. Some T/C values are followed by the survivors on the day toxicity was checked, most often the fifth; where neither a count nor a note follows, no animal had died by that day. Some entries hold several experiments; the values are given in rising order. Signs of the kind (2×) stand for listed records that agree. Some schedule codes hold Z or #, which are not explained here.
# System: L1210 leukemia ip in BDF1 mice, survival T/C
# Assay: NCI In Vivo Anticancer Drug Screen. Data for tumor model L1210 Leukemia (intraperitoneal) in B6D2F1 (BDF1) mice
# Settings: T/C endpoint: mean survival time, higher T/C = longer survival
smiles,measurement,setting,value
NC(=O)c1[nH]cnc1/N=N\N(CCCl)CCCl,T/C,"dose: 56.0 mg/kg/injection, schedule: Q#A X Z (ip), vehicle: carboxymethylcellulose (CMC)",126 and 160 % of control
same,T/C,"dose: 62.5 mg/kg/injection, schedule: Q03HX016 (ip), vehicle: carboxymethylcellulose (CMC)",532 % of control
same,T/C,"dose: 65.0 mg/kg/injection, schedule: Q01DX009 (ip), vehicle: carboxymethylcellulose (CMC)",236 % of control
same,T/C,"dose: 65.0 mg/kg/injection, schedule: Q01DX017 (ip), vehicle: carboxymethylcellulose (CMC)",280 % of control
same,T/C,"dose: 65.0 mg/kg/injection, schedule: Q01DX Z (ip), vehicle: carboxymethylcellulose (CMC)",265 and 400 % of control
same,T/C,"dose: 65.0 mg/kg/injection, schedule: Q01DX Z (sc), vehicle: carboxymethylcellulose (CMC)",200 % of control
same,T/C,"dose: 65.9 mg/kg/injection, schedule: Q01DX001 (ip), vehicle: steroid suspending solution",150 % of control
same,T/C,"dose: 66.0 mg/kg/injection, schedule: Q03DX Z (ip), vehicle: carboxymethylcellulose (CMC)",348 % of control
same,T/C,"dose: 67.0 mg/kg/injection, schedule: Q01DX001 (ip), vehicle: carboxymethylcellulose (CMC)",116 and 140 % of control
same,T/C,"dose: 67.0 mg/kg/injection, schedule: Q07DX Z (ip), vehicle: carboxymethylcellulose (CMC)",175 % of control
same,T/C,"dose: 74.0 mg/kg/injection, schedule: Q06HX008 (ip), vehicle: carboxymethylcellulose (CMC)",309 % of control
same,T/C,"dose: 75.0 mg/kg/injection, schedule: Q01DX005 (oral), vehicle: carboxymethylcellulose (CMC)",168 % of control
same,T/C,"dose: 75.0 mg/kg/injection, schedule: Q01DX006 (iv), vehicle: carboxymethylcellulose (CMC)",224 % of control [5 of 6 alive]
same,T/C,"dose: 75.0 mg/kg/injection, schedule: Q01DX009 (oral), vehicle: carboxymethylcellulose (CMC)",242 % of control
same,T/C,"dose: 75.0 mg/kg/injection, schedule: Q01DX017 (oral), vehicle: steroid suspending solution",148 and 192 % of control
same,T/C,"dose: 75.0 mg/kg/injection, schedule: Q01DX Z (im), vehicle: carboxymethylcellulose (CMC)",327 % of control
same,T/C,"dose: 75.0 mg/kg/injection, schedule: Q01DX Z (ip), vehicle: carboxymethylcellulose (CMC)","225, 319, 340 % of control"
same,T/C,"dose: 75.0 mg/kg/injection, schedule: Q01DX Z (oral), vehicle: carboxymethylcellulose (CMC)",254 and 343 % of control
same,T/C,"dose: 75.0 mg/kg/injection, schedule: Q01DX Z (sc), vehicle: carboxymethylcellulose (CMC)",255 % of control
same,T/C,"dose: 75.0 mg/kg/injection, schedule: Q03HX008 (oral), vehicle: carboxymethylcellulose (CMC)",210 % of control
same,T/C,"dose: 75.0 mg/kg/injection, schedule: Q04DX005 (oral), vehicle: carboxymethylcellulose (CMC)",126 % of control
same,T/C,"dose: 75.0 mg/kg/injection, schedule: Q06HX012 (oral), vehicle: steroid suspending solution",120 % of control
same,T/C,"dose: 75.0 mg/kg/injection, schedule: Q06HX020 (oral), vehicle: steroid suspending solution",191 % of control
same,T/C,"dose: 75.0 mg/kg/injection, schedule: Q06HX068 (oral), vehicle: steroid suspending solution",134 % of control
same,T/C,"dose: 75.0 mg/kg/injection, schedule: Q## X009 (oral), vehicle: carboxymethylcellulose (CMC)",189 % of control
same,T/C,"dose: 78.0 mg/kg/injection, schedule: Q01DX001 (ip), vehicle: other",138 and 142 % of control
same,T/C,"dose: 83.0 mg/kg/injection, schedule: Q04DX003 (ip), vehicle: other",195 and 235 % of control
same,T/C,"dose: 84.0 mg/kg/injection, schedule: Q#A X Z (ip), vehicle: carboxymethylcellulose (CMC)",110 % of control
same,T/C,"dose: 87.0 mg/kg/injection, schedule: Q01DX009 (ip), vehicle: other","239, 243 [9 of 10 alive], 291 % of control"
same,T/C,"dose: 90.0 mg/kg/injection, schedule: Q12HX004 (ip), vehicle: carboxymethylcellulose (CMC)",234 % of control
same,T/C,"dose: 93.0 mg/kg/injection, schedule: Q01DX001 (ip), vehicle: carboxymethylcellulose (CMC)",168 % of control
same,T/C,"dose: 94.2 mg/kg/injection, schedule: Q01DX001 (ip), vehicle: steroid suspending solution",165 % of control
same,T/C,"dose: 95.0 mg/kg/injection, schedule: Q04DX004 (ip), vehicle: other",261 % of control
same,T/C,"dose: 99.0 mg/kg/injection, schedule: Q03DX Z (ip), vehicle: carboxymethylcellulose (CMC)",348 and 357 % of control
same,T/C,"dose: 100.0 mg/kg/injection, schedule: Q01DX001 (ip), vehicle: carboxymethylcellulose (CMC)","139 (2×), 146, 150, 157, 158, 172 % of control"
same,T/C,"dose: 100.0 mg/kg/injection, schedule: Q01DX001 (ip), vehicle: saline",131 and 139 % of control
same,T/C,"dose: 100.0 mg/kg/injection, schedule: Q01DX001 (ip), vehicle: steroid suspending solution, evaluated on day 6",195 % of control
same,T/C,"dose: 100.0 mg/kg/injection, schedule: Q01DX001 (ip), vehicle: steroid suspending solution, evaluated on day 28",149 % of control
same,T/C,"dose: 100.0 mg/kg/injection, schedule: Q01DX001 (ip), vehicle: steroid suspending solution, evaluated on day 60","118, 128, 195, 280 % of control"
same,T/C,"dose: 100.0 mg/kg/injection, schedule: Q01DX001 (ip), vehicle: water","150, 159, 161, 279 % of control"
same,T/C,"dose: 100.0 mg/kg/injection, schedule: Q01DX001 (iv), vehicle: water","154, 162, 178 % of control"
same,T/C,"dose: 100.0 mg/kg/injection, schedule: Q01DX005 (ip), vehicle: carboxymethylcellulose (CMC)",188 and 340 % of control
same,T/C,"dose: 100.0 mg/kg/injection, schedule: Q01DX009 (ip), vehicle: carboxymethylcellulose (CMC)",308 % of control
same,T/C,"dose: 100.0 mg/kg/injection, schedule: Q01DX009 (ip), vehicle: water",329 % of control
same,T/C,"dose: 100.0 mg/kg/injection, schedule: Q01DX009 (oral), vehicle: carboxymethylcellulose (CMC)",212 % of control
same,T/C,"dose: 100.0 mg/kg/injection, schedule: Q01DX017 (ip), vehicle: carboxymethylcellulose (CMC)","197, 248 [9 of 10 alive], 302 % of control"
same,T/C,"dose: 100.0 mg/kg/injection, schedule: Q01DX Z (ip), vehicle: carboxymethylcellulose (CMC)",179 % of control
same,T/C,"dose: 100.0 mg/kg/injection, schedule: Q01DX Z (oral), vehicle: carboxymethylcellulose (CMC)",178 % of control
same,T/C,"dose: 100.0 mg/kg/injection, schedule: Q02DX009 (ip), vehicle: carboxymethylcellulose (CMC)","283, 293, 351 % of control"
same,T/C,"dose: 100.0 mg/kg/injection, schedule: Q03HX003 (ip), vehicle: carboxymethylcellulose (CMC)",187 % of control
same,T/C,"dose: 100.0 mg/kg/injection, schedule: Q03HX008 (ip), vehicle: water",348 % of control
same,T/C,"dose: 100.0 mg/kg/injection, schedule: Q04DX002 (ip), vehicle: water",130 and 178 % of control
same,T/C,"dose: 100.0 mg/kg/injection, schedule: Q04DX003 (ip), vehicle: carboxymethylcellulose (CMC)",195 % of control
same,T/C,"dose: 100.0 mg/kg/injection, schedule: Q04DX003 (ip), vehicle: water",319 % of control
same,T/C,"dose: 100.0 mg/kg/injection, schedule: Q04DX003 (oral), vehicle: carboxymethylcellulose (CMC)",177 % of control
same,T/C,"dose: 100.0 mg/kg/injection, schedule: Q04DX005 (ip), vehicle: carboxymethylcellulose (CMC)","290, 322, 368 % of control"
same,T/C,"dose: 100.0 mg/kg/injection, schedule: Q04DX Z (oral), vehicle: carboxymethylcellulose (CMC)",256 % of control
same,T/C,"dose: 100.0 mg/kg/injection, schedule: Q08DX002 (ip), vehicle: carboxymethylcellulose (CMC)",178 % of control
same,T/C,"dose: 100.0 mg/kg/injection, schedule: Q08DX002 (ip), vehicle: water",289 % of control
same,T/C,"dose: 100.0 mg/kg/injection, schedule: Q08DX003 (ip), vehicle: carboxymethylcellulose (CMC)",263 % of control
same,T/C,"dose: 100.0 mg/kg/injection, schedule: Q## X001 (ip), vehicle: carboxymethylcellulose (CMC)",208 % of control
same,T/C,"dose: 100.0 mg/kg/injection, schedule: Q## X003 (ip), vehicle: carboxymethylcellulose (CMC)",213 % of control
